One molecule from article PMC11068012 can be followed below.

No constants are given. Whether binding was seen depends on the method and setting. In cells and extracts the contact can be indirect. Some results given as binding are weak or reduced against the parent protein; the word gives no strength.

The experiment concerns the target Enhancer of Zeste [E(z)] (D. melanogaster (endogenous in larval CNS)), P42124. As to the kind of experiment: co-IP; third instar larval CNS protein extracts (1 mg per reaction; 25 mM Hepes, 0.1 mM EDTA, 12.5 mM MgCl2, 10% glycerol, 0.01% NP-40, 10 mM NaCl; sonicated), precipitated with anti-Ph or anti-E(z) overnight at 4°C on protein A/G beads, Western blot. As to conditions: remark: other sources report otherwise.

B1: Pleiohomeotic (Pho), Q8ST83 1-520 (protein)
chain: MAYERFGIILQSEQYDEDIGNTKVNQKMNEGNHYDLHRKNAFDRIIHSESKKGDNVINYNIHENDKIKAADNIFSSKLKMNPNMSYEMNINCFKNIGYGENQETSKVLTNSLSNNDINTEESGVVDKNSPFLTLGTTILNSNGKSRRWEQKLVHIKTMEGEFSVTMWASGISDDEYSGSDQIVGASDLLKGKEEFGIDGFTSQQNKEYQKMESKFTNAQTLEMPHPISSVQIMDHLIKERGNLSQENNISERILSKTTLSFEEPILLPDSSSIELVNETAAMTINNHRTLSNHTGNTGDLHALPSSVPFRIGLHEGQVNDCLSTISQSTHQDNTDSTGCGEMNLSEVTVSYTNDKKIACPHKGCNKHFRDSSAMRKHLHTHGPRVHVCAECGKAFVESSKLKRHQLVHTGEKPFQCTFEGCGKRFSLDFNLRTHVRIHTGDRPFVCPFDACNKKFAQSTNLKSHILTHAKAKRNTSISGKSGCSNAESNSQSEDTSANYVKVELQDSVTENHVPFVVYAD
With B1, the binding entry is on record as “binds”.
